Values quoted from earlier work as cited in patent US20090227559A1, “SNPS IN THE APOB GENE AND SUSCEPTIBILITY TO INCREASED LEVELS OF ALAT FOLLOWING XIMELAGATRAN ADMINISTRATION” (AstraZeneca AB, priority 2005, published 2009).
At least one structure is not confirmed: it was looked up by name or label, or the drawing left a doubt.

Legend:
Conditions in all cases: prodrug itself; cited from earlier work
trypsin = trypsin (Homo sapiens, UniProt P07477)
other serine proteases = test system: other serine proteases
thrombin = thrombin (Homo sapiens, UniProt P00734)

CCOC(=O)CN[C@@H](C(=O)N1CC[C@H]1C(=O)NCc1ccc(/C(N)=N\O)cc1)C1CCCCC1 [ximelagatran, EtOOC—CH2—(R)Cgl-Aze-Pab-OH]
inactive per se: activity per se to trypsin (trypsin) | activity per se to other serine proteases (other serine proteases) | activity per se to thrombin (thrombin)
